For 108 sequences, median seed-adjusted z-score results are on record in PubChem BioAssay AID1347426 (Functional Genomics Laboratory (NCATS/FGL), 2020).

Among all 31,000 sequences or so, about 1,400 (4.5%) were called active.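 How the source made its calls: active means median seed-adjusted z-score above 1 or below -1; inactive means the rest.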 The list shows a part of the results.

The nature of this assay: Novel Modifiers of Survival Motor Neuron (SMN) Protein: Gene Identification via Genome-wide siRNA Screen.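 Further: luminescence tracks full-length SMN protein made from the SMN2 reporter.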 As to conditions: HEK293T SMN2-luciferase reporter, siRNA knockdown, 72 h; actives lie on both sides. Summed up:
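Steps: spot 1 pmol siRNA, add Lipofectamine RNAiMax in serum-free DMEM, seed HEK293T SMN2–luciferase reporter cells; incubate 72 h at 37 °C; add ONE-Glo; normalize luminescence to control siRNA, log10, MAD. Candidates: |MAD| > 1.0.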
(In general: Reporter assays use an easily measured gene product as a stand-in for the process of interest.)
In the case of GCCCGUUAGUAAACCUGGATT against HTRA1, the median seed-adjusted z-score is inactive: 0.031. As to CCUAAAACCUCGGGCAGAATT against ATP5I, the median seed-adjusted z-score was inactive: -0.871.

For CUACUAGAUCAGUACCGAATT against MAN2A1, the median seed-adjusted z-score is inactive: -0.397. The figure for GAGCUGGGAUGAUAAAGAUTT against AGPAT2 is inactive: 0.38; for CCAUUGCCGGCAUUUUUAATT against SLC35C2 it is inactive: -0.483; for GGUCCAAGGAAGCACCAAATT against EIF2AK4 it is inactive: -0.188. With GCACUUACAUGUGGAGAUATT against LEFTY1, the median seed-adjusted z-score was inactive: 0.383. Consider CCGUUAGCCUGAUCAUCUUTT against DPM2, for which the median seed-adjusted z-score is inactive: -0.419. The figure for GGUUUGCCCUAAUCCGUCATT against TAF15 is inactive: 0.357. For CAAGCUUUGGGAACGAUCATT against PHF21B, the median seed-adjusted z-score is inactive: 0.327. For the sequence GCAAGAUCCUCUCUAAUAATT against GSS, the median seed-adjusted z-score was inactive: 0.122.

Regarding GGGACUCAUUGCUAACCCATT against TNPO3, the median seed-adjusted z-score was inactive: 0.577.

Regarding GGAGUCUACUUUACCGGUATT against BPIL2, the median seed-adjusted z-score is inactive: -0.63. The figure for GAUGAGAAAUAUUCGAUUATT against SPAST is inactive: 0.0703; for AGAGGAAGAUAGAUUUUCUTT against PFDN5 it is inactive: 0.562; for GCAACAGCAUUGUCCGUGUTT against LRRN2 it is inactive: 0.324. Turning to CGGUGGAUAACGACAAGAATT against RGN, the median seed-adjusted z-score was inactive: 0.132.

As to AAGACAGGCUGAUCAACUATT against SPATA20, the median seed-adjusted z-score was inactive: 0.

For the sequence CAUCCAUAAUUGGUGUAAATT against KIF20B, the median seed-adjusted z-score is inactive: 0.

Turning to GGCUAAGCUUGUACAAUAATT against CIITA, the median seed-adjusted z-score is inactive: -0.109. Turning to UGAGGACAACUACCAGUUUTT against FCN2, the median seed-adjusted z-score was inactive: 0.281. CUGUAUGGGUGGUCAAUCATT against ABCA1: the median seed-adjusted z-score is active: -1.27. As to GAUUGAAGGAUUUGAGGUATT against PPP1R7, the median seed-adjusted z-score was inactive: 0.0505.

For the sequence GGUGACUUCUUGCAUAGUATT against COL4A3BP, the median seed-adjusted z-score is inactive: 0.0391.

Turning to CCUGAAGACUCAAGACCAATT against CFB, the median seed-adjusted z-score was inactive: 0.132. As for CCUUGCUCCUGUUCACAAUTT against SPRY1, the median seed-adjusted z-score was inactive: 0.642. The figure for GAACAAUCAUUGCAUCGGATT against CPB2 is inactive: -0.62. Turning to CAAAGUUGAUCACAGUAAATT against RHEB, the median seed-adjusted z-score was inactive: -0.387. Regarding GGAUCGCUCGUCUCUGGUATT against KLK4, the median seed-adjusted z-score is inactive: 0.437.

Take GAGGUGAAAUCAAGACUCATT against P4HB: the median seed-adjusted z-score is inactive: -0.0514. For GCAGAGACACCUUGAAGUATT against GAD1, the median seed-adjusted z-score was inactive: 0.101. GAGUUCACCCAGAUCGAAATT against CHMP6: the median seed-adjusted z-score is active: -1.81. As for GGCUAACAAUUUGUCCAGUTT against SEC22B, the median seed-adjusted z-score is inactive: -0.106.

For CUCCUGAUGUUGCUAGUAUTT against MLL3, the median seed-adjusted z-score was inactive: -0.248. The figure for GCAGAACUGUAGUCUGGAATT against UQCRC1 is inactive: -0.284; for AAAUGGGUGUUAAUAUAGUTT against FABP2 it is inactive: 0; for CAACAUCCGUGCUCUGAGATT against ASB10 it is inactive: 0. With CCAUACCUAUGUCAGAAGATT against SLC6A15, the median seed-adjusted z-score was inactive: 0.0939. In the case of CCGAGUCUGUCAUUCGAUUTT against TIPARP, the median seed-adjusted z-score was inactive: 0.372.

Take CCAGAGUUCCUAUCUCAUATT against ZNF774: the median seed-adjusted z-score is inactive: -0.0834. For GACAUUAUAGUGUCAAGAATT against SLC24A2, the median seed-adjusted z-score was inactive: 0.136. As for AGAUACCAAUGGAUCAGAUTT against MAP3K7, the median seed-adjusted z-score was inactive: -0.23. As for CGAUCUCACGGAUACAGCATT against TSTA3, the median seed-adjusted z-score was inactive: 0.155.

For GUACUUAUCCAGAAGCGAATT against PREPL, the median seed-adjusted z-score is inactive: -0.459. Regarding GAACUGUCCUGGAUUGUGATT against BDH2, the median seed-adjusted z-score is inactive: -0.242. In the case of CAUAGACCACCACAAGAUATT against S100A7L2, the median seed-adjusted z-score is inactive: 0.283. For the sequence GACAAUCAGCUGACAAUUATT against CDC6, the median seed-adjusted z-score was inactive: 0.0196. Consider AGACACCACAUGUACACCATT against DPEP3, for which the median seed-adjusted z-score was inactive: 0.95.

Take CAGUCACACUUUCUGGAAATT against PNLIPRP2: the median seed-adjusted z-score was inactive: -0.022. On to CACUUGCACUAGCAGCGAATT against NUBPL, for which the median seed-adjusted z-score was inactive: 0.105. For AGAACCAGCUGACAAUCGATT against PITPNM2, the median seed-adjusted z-score is inactive: 0.275.

GCAUUCACCAAGAUAUAAATT against ACBD5: the median seed-adjusted z-score was inactive: -0.118. With GCUUAUUACCCGCUCAAAUTT against PRDM13, the median seed-adjusted z-score is inactive: 0. In the case of GGUGGUCAUUAGCUUUGAATT against WNT5B, the median seed-adjusted z-score was inactive: 0.72. Take CCAAAAGGAUUGAUUAGAATT against IFI16: the median seed-adjusted z-score was inactive: -0.0178. Consider CCUUACAAGUGUUCUGAAUTT against ZNF691, for which the median seed-adjusted z-score is inactive: 0.28. As for GCUUGUACAACAUUACUCATT against FYN, the median seed-adjusted z-score was inactive: -0.0476. The figure for GAUGUACCUUGAUACAGUATT against IDH3A is inactive: 0.137; for CACCUUAACUUCAUCAACATT against SCN4A it is inactive: -0.681; for GCUCAAGAGUUAGACCCUUTT against MOCS3 it is inactive: -0.496.

Consider GAAAGAACGUGUGCAAAAATT against BTN2A1, for which the median seed-adjusted z-score was inactive: 0.302.

Consider GGACGACAGAUCUAUGUAATT against CASK, for which the median seed-adjusted z-score is inactive: -0.422. In the case of GGAUCUCACAAAAACUCGATT against SLC25A27, the median seed-adjusted z-score is inactive: 0.0916. The figure for CCAGAGUUAUAUAAGCAGATT against SYT9 is inactive: 0.0419; for GCCCAUCACCUCUUCAUGATT against RAMP1 it is inactive: -0.031. For CGACCAUUGGAGAUGUUAATT against SCML2, the median seed-adjusted z-score was inactive: -0.538. For the sequence CCAUGUGGUUUAUCCGUGATT against ZDHHC3, the median seed-adjusted z-score is inactive: 0.229. Turning to GGAGAUCUCUCGUCUCAAUTT against KCNH4, the median seed-adjusted z-score was inactive: -0.769. As for CCAGGAUCUCUACACUGUATT against ATP6V0A2, the median seed-adjusted z-score is inactive: 0.236. Take GGCAGAUUAGUUUACCGAUTT against AGL: the median seed-adjusted z-score was inactive: -0.385. The figure for CGCUGCAGGUUGUUCGAUATT against P4HTM is inactive: -0.257. As to GAACAAUGAGUAUAUCCUATT against PPP2R5B, the median seed-adjusted z-score was inactive: 0.237. The figure for CACUGGUACUCUUUCUAAUTT against NQO2 is inactive: -0.0723; for GAACUAUCAGAGCAGUUUUTT against LONP2 it is active: 1.52. Regarding GACUUAGGAUGGAACCCUUTT against ZNF408, the median seed-adjusted z-score was inactive: 0.00381. On to CGCUCUAAAUAAUUGCAAUTT against SLC9A3R2, for which the median seed-adjusted z-score was inactive: 0.165. The figure for GGACAACCGUUGCCUCAGATT against DLC1 is inactive: -0.0296; for CCCUUUUGCCUGUCAAUGATT against PLA1A it is inactive: 0.197. For CCCUCGGAAGCACAAGUUUTT against TEF, the median seed-adjusted z-score is inactive: 0. Consider GGAGCUACAACCCACAGUATT against PLA2G5, for which the median seed-adjusted z-score was inactive: 0.0601. As for CGGUACUGUUGUUGAAUCATT against ZNF385B, the median seed-adjusted z-score is inactive: 0.446. Regarding CGAGCACAAGGCAACAAGATT against GNL3L, the median seed-adjusted z-score is inactive: 0.568. GGUGACUACUUGUAUCUGATT against NOX5: the median seed-adjusted z-score is inactive: 0.178. Consider GGCUGGAAAAUUAUCCAUATT against TM9SF1, for which the median seed-adjusted z-score is inactive: 0.14. On to GGACCGACAUUUGACUAUUTT against B4GALT3, for which the median seed-adjusted z-score is inactive: -0.138. Regarding GGAUGUGAAGUGUGCUAAUTT against GRM8, the median seed-adjusted z-score is inactive: 0.129.

With GGAUUUGGAUUCGUUCAGCTT against SOX11, the median seed-adjusted z-score is inactive: 0.02. The figure for CCUCAGAGCUCAAUCAUCUTT against CD5 is inactive: 0.0416; for CAGUGAAGAUAAAAUUCAATT against CRIP3 it is active: 1.7; for GAGGCAAAAUUAUACGGCATT against GRPEL1 it is inactive: 0. As for GGAGAGAGCUCUCACAUCUTT against PPT1, the median seed-adjusted z-score is inactive: 0.727. As for CCUCCGGAACAAGAACUAATT against ZNF397, the median seed-adjusted z-score is inactive: -0.107. With GGUCACCACUUGCAAGCUATT against ANG, the median seed-adjusted z-score was inactive: -0.481.

CCAACAACAUUUCAGACAATT against TBX3: the median seed-adjusted z-score is inactive: 0. With CAAGUGUCUAUGUAACGAATT against FBN2, the median seed-adjusted z-score is inactive: 0.373.

Take GCGUGGACUUUGAUAUUGATT against EDEM2: the median seed-adjusted z-score is inactive: 0.36. The figure for GGAUUGAAGAGAAGGCUAATT against ZDHHC6 is inactive: 0.199; for GGAAUUUGCCUGCUAAUCATT against SEC61A1 it is inactive: 0.312. Take CCUUAGCCUGUUCUAUUCATT against TIMP2: the median seed-adjusted z-score was inactive: 0.0444. Turning to GGACAUUCACAGUUUCGAATT against ATP9B, the median seed-adjusted z-score is inactive: 0. For CAGACAGUAUGUUUACGAUTT against RNASEH1, the median seed-adjusted z-score is inactive: -0.0205. The figure for GCAUUGCAAGAGUGGAGAATT against KCNK10 is inactive: 0.239.

In the case of GAAUCCCGCUGACAAACCATT against MINK1, the median seed-adjusted z-score was inactive: -0.522.

Consider CCACACCUACUGAGAUUAUTT against MORF4L2, for which the median seed-adjusted z-score is inactive: 0.389. As for GCAGAUAAGAUCAAGAUCATT against SRPK3, the median seed-adjusted z-score is inactive: -0.643. In the case of GAACCGGUACAAAACCAUATT against PTPN5, the median seed-adjusted z-score was inactive: 0.22. Turning to CAACUAUCCACAACUCGAATT against DNAJC13, the median seed-adjusted z-score is inactive: -0.12. Turning to CACUAGAUCGCGAUAAUAATT against DDB1, the median seed-adjusted z-score was inactive: 0.231.
